The entries are a selection whose mix differs from that of the whole data set.
Target: furin, P09958
Test: furin cleavage Z-score vs untreated control; higher = more cleavage, active = 3.5 or more, inactive = 1 or less, 8 variable residues between constant flanks
Method in brief: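 Purified furin digested bead-held 8-mer peptide–cDNA fusions at 1:10 enzyme:substrate in 0.01 ml of 50 mM HEPES pH 7.5 with CaCl2 and NaCl for 7.5, 15 or 30 min. The cleavage Z-score compares sequencing counts of released DNA with furin-free reactions on a log scale, with lowess adjustment and median absolute deviation scaling.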

By UniProt entry, the sequences of proteins in these tests, tags left out.
furin, P09958, UniProt P09958, whole entry: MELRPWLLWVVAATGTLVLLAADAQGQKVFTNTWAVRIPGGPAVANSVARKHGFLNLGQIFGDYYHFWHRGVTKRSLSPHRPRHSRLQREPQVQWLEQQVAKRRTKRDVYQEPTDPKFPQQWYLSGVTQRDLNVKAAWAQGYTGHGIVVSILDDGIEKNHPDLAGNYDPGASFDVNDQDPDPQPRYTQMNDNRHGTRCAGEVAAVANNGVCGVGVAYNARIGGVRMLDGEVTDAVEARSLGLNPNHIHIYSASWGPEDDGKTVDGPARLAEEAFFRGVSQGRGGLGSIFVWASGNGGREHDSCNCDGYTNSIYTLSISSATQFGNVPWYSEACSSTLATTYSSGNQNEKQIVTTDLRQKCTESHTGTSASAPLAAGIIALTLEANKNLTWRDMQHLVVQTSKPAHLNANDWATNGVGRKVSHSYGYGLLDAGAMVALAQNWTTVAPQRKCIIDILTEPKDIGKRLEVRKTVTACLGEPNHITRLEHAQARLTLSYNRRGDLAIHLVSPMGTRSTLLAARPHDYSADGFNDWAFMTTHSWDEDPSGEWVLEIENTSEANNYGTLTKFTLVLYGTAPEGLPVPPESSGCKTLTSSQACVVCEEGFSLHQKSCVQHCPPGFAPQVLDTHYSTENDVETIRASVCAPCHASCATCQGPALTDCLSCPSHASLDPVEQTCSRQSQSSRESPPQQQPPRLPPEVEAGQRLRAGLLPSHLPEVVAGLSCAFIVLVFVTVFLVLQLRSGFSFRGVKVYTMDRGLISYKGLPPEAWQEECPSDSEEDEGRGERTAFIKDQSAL

Row | Sequence | furin cleavage Z-score (7.5 min) | furin cleavage Z-score (15 min) | furin cleavage Z-score (30 min)
1 | CAEHTTPCSGAGNASASA [HC1975] | inactive: -1.73 | inactive: -1.12 | inactive: 0.179
2 | CAKPLRRKRSAGNASASA [FS-260] | 1.71 | 1.32 | 1.94
3 | CANRVAACLRAGNASASA [HC1612] | 1.11 | 2.15 | 1.36
4 | CARSVRCTSHAGNASASA [FS-2609] | 1.25 | 2.37 | 2.41
5 | CAQSSRHRRAAGNASASA [FS-851] | active: 13.1 | active: 12.7 | active: 10.3
6 | CAGLLRSRRNAGNASASA [FS-1199] | 3.08 | 2.57 | 2.61
7 | CAIIIRDQRSAGNASASA [FS-664] | 1.02 | 3.28 | 2.98
8 | CADKRRTKKAAGNASASA [FS-224] | 1.81 | 1.61 | 3.03
9 | CARGPREVSPAGNASASA [FS-2020] | 2.79 | 3.42 | 3.27
10 | CAYRRRHRKHAGNASASA [FS-740] | 3.32 | 2.99 | 2.07
11 | CALRKSRRFAAGNASASA [HC1298] | 1.4 | 1.75 | 2.1
12 | CAVVCCNMSYAGNASASA [HC118] | 2.3 | 2.6 | 2.15
13 | CARPPRGFQPAGNASASA [FS-3019] | inactive: -1.18 | inactive: -0.836 | inactive: -0.248
14 | CATNVVFKRDAGNASASA [FS-569] | 3.1 | 1.24 | 2.9
15 | CAKSPRRTRSAGNASASA [FS-1351] | active: 5.21 | active: 4.36 | 2.84
16 | CAKPSRHQRTAGNASASA [FS-1460] | 1.14 | 2.1 | 2.3
17 | CAGGRRRRRTAGNASASA [FS-592] | 2.21 | 1.63 | 1.74
18 | CASTPCSAHWAGNASASA [HC2568] | 2.09 | 1.65 | 1.64
19 | CAQYFLTRVEAGNASASA [HC584] | inactive: -0.544 | inactive: -0.576 | inactive: 0.581
20 | CATESDIRTEAGNASASA [HC1485] | inactive: -0.326 | inactive: -0.524 | inactive: -0.55
21 | CARSARRKRKAGNASASA [FS-1610] | active: 9.41 | active: 11.4 | active: 7.56
22 | CALSPYYKRYAGNASASA [HC576] | 1.15 | 1.65 | 1.73
23 | CAGKSRRKRQAGNASASA [FS-1328] | active: 11.6 | active: 12.5 | active: 8.34

In another format: entries from further up.
Row	Sequence	furin cleavage Z-score (7.5 min)	furin cleavage Z-score (15 min)	furin cleavage Z-score (30 min)
12	CAVVCCNMSYAGNASASA [HC118]	2.3	2.6	2.15
13	CARPPRGFQPAGNASASA [FS-3019]	inactive: -1.18	inactive: -0.836	inactive: -0.248
14	CATNVVFKRDAGNASASA [FS-569]	3.1	1.24	2.9
15	CAKSPRRTRSAGNASASA [FS-1351]	active: 5.21	active: 4.36	2.84
16	CAKPSRHQRTAGNASASA [FS-1460]	1.14	2.1	2.3
17	CAGGRRRRRTAGNASASA [FS-592]	2.21	1.63	1.74

Source: the supplement of paper PMC3545927
